Measurements reported in PMC11441496.

Key:
[1] = target: E. coli FimC A106C, His-tagged (E. coli) (UniProt P31697); test: cross-linking; engineered disulfide bond between FimC A106C-his and FimG S138C (FimCGdb); SI Appendix, Fig. S3
[2] = target: K. pneumoniae TOP52 FimH D54N (Klebsiella pneumoniae); test: in vitro donor strand exchange, product purified by cation exchange; FimCGdb and FimChisH mixed at a 3:1 molar ratio in 20 mM MES (pH 5.6) at 30 °C for 16 h; FimCGdbH purified on a cation (S) exchange column; FimH entered the reaction bound to FimChis; both purified
[3] = target: K. pneumoniae TOP52 FimH T74P (Klebsiella pneumoniae); test: as above

Measured: binding

B1: E. coli UTI89 FimG S138C (protein, UniProt P08190 24-167)
chain: ADVTITVNGKVVAKPCTVSTTNATVDLGDLYSFSLMSAGAASAWHDVALELTNCPVGTSRVTASFSGAADSTGYYKNQGTAQNIQLELQDDSGNTLNTGATKTVQVDDSSQSAHFPLQVRALTVNGGATQGTIQAVICITYTYS
binds: all assays above

Results are given in words; binding and its absence hold for the method and conditions named. Binding calls can cover weak binding; strength is not graded here. For part of these data: In cells and extracts the contact can be indirect.
